Reference: patent publication US20200108066A1, “METHODS FOR MODULATING REGULATORY T CELLS AND IMMUNE RESPONSES USING CDK4/6 INHIBITORS” (Dana-Farber Cancer Institute, Inc., priority 2017, published 2020)
At least one compound was matched to its structure with a doubt left.

Columns and labels:
[1] = test system: interferons in tumor cell conditioned medium; assay: ELISAs of tumor cell conditioned medium; type: cell-based, human
[2] = test system: tumor cell-surface B2M and MHC class I proteins; assay: B2M/MHC I flow cytometry in cell lines; type: cell-based, human; conditions: 7 days treatment
thymocytes = assay: Thymic mass and thymic cell populations in tumor-free FVB mice; type: in vivo, mouse; conditions: 12 days
Description: FIG. 10 includes 9 panels, identified as panels A, B, C, D, E, F, G, H, and I, which show the impact of CDK4/6 inhibition on immune cell populations and Treg biology. […] Panel C compares thymic mass with or without abemaciclib/palbociclib treatment. Thymic cell populations were quantified by flow cytometry.
Following mechanical digestion and RBC lysis, single cell suspensions were blocked with anti-CD16/32 for 20 minutes on ice. Cells were incubated with appropriate antibodies for 30 minutes on ice.
Murine antibodies used for flow cytometry include those recognizing CD45 (clone 30-F11), CD3 (clone 145-2C11), CD8 (clone 53-6.7), CD4 (clone RM4-5), PD-1 (clone 29F.1A12), Tim-3 (clone RMT3-23), CTLA-4 (clone UC10-4B9), LAG-3 (clone C9B7W), B220 (clone RA3-6B2), NK1.1 (clone PK136), CD11b (clone M1/70), Ly6G (clone 1A8), Ly6C (clone AL-21), FoxP3 (clone FJK-16s), and Ki-67 (clone 16A8). Human antibodies used for flow cytometry were those recognizing β2-microglobulin (clone 2M2) and HLA-A, B, C (clone W6/32). Antibodies were purchased from Biolegend with the exception of anti-FoxP3 from eBioscience and anti-Ly6C from BD Pharmigen. All antibodies used for flow cytometry were directly conjugated to fluorophores. The anti-mouse/rat FoxP3 staining set (eBioscience) was used for intracellular staining according to the manufacturer's instructions. 7AAD was used to distinguish live/dead cells, except for analyses requiring intracellular staining when eFluor® 450 fixable viability dye (eBioscience) or Zombie Yellow™ fixable viability dye (Biolegend) were used. To determine the absolute number of cells in a sample, CountBright™ absolute counting beads (Molecular Probes, ThermoFisher) were added. Flow cytometry was performed on a LSRII (BD Biosciences, San Jose, Calif.) or FACSCANTOII (BD Biosciences), and data was analyzed using FlowJo® (TreeStar).

[3] = test system: CD4+CD25+, CD8+ and CD4+CD25- T cells; assay: T cell proliferation in vitro (CFSE dilution); type: cell-based, mouse; conditions: 250 or 500 nM, 72 hours vs DMSO
circulating Tregs = assay: Tregs in peripheral blood of MMTV-rtTA/tetO-HER2 tumor-bearing mice; type: in vivo, mouse
[4] = test system: CT-26 colorectal carcinomas; assay: Mice bearing CT-26 colorectal carcinomas; type: in vivo, mouse
[5] = test system: Dnmt1 and Cdkn1a expression in T cell subsets; assay: qPCR of T cell subsets sorted from spleens and lymph nodes of treated tumor-free mice; type: in vivo, mouse; conditions: 12 days
[6] = test system: Tregs and T cell populations in spleen and lymph nodes; assay: Flow cytometry of spleens and lymph nodes of tumor-free FVB mice; type: in vivo, mouse; conditions: 12 days
metastatic breast cancer = conditions: monotherapy; abemaciclib dosed continuously, palbociclib dosed intermittently; cited from earlier work
MDA-MB-453 cells = assay: JAK dependency of abemaciclib effects (abemaciclib +/- ruxolitinib); type: cell-based, human; conditions: ruxolitinib 500 nM with abemaciclib 500 nM, 7 days

Structure (SMILES)	interferon alpha, beta, and gamma in conditioned medium ([1]; abemaciclib-treated tumor cells, 500 nM, 7 days)	type III interferon levels in tumor cell conditioned medium ([1]; after abemaciclib treatment)	tumor cell-surface expression of B2M and MHC class I proteins [2]	fraction of CD4+ or CD8+ single-positive lymphocytes in thymus (thymocytes)	immature CD4+CD8+ double-positive thymocytes (thymocytes)	thymic Treg population (thymocytes)	Treg (CD4+CD25+) proliferation in vitro [3]	suppression of CD8+ or CD4+CD25- T cell proliferation in vitro [3]	circulating Tregs (circulating Tregs)	Treg numbers in the tumor and blood [4]	Dnmt1 expression in sorted T cell subsets [5]	expression of CDKN1A in Treg cells in spleens and lymph nodes [5]	Treg numbers in the spleen and lymph nodes [6]	objective tumor responses / tumor regression in patients (metastatic breast cancer)	abemaciclib-induced increases in p-STAT1 and total STAT1 levels (MDA-MB-453 cells)
CCN1CCN(Cc2ccc(Nc3ncc(F)c(-c4cc(F)c5nc(C)n(C(C)C)c5c4)n3)nc2)CC1 [abemaciclib]	none of interferon alpha, beta, and gamma was detected	significant increase	increased	increased	decreased	no reduction	selective suppression	not apparent	significant reduction	reduced	suppressed Dnmt1 expression in Tregs cells but no other T cells	increased expression	–	–	–
CC(=O)c1c(C)c2cnc(Nc3ccc(N4CCNCC4)cn3)nc2n(C2CCCC2)c1=O [palbociclib]	–	–	increased	increased	decreased	no reduction	–	–	–	–	–	–	significantly reduced	tumor regression	–
N#CC[C@H](C1CCCC1)n1cc(-c2ncnc3[nH]ccc23)cn1 [ruxolitinib]	–	–	–	–	–	–	–	–	–	–	–	–	–	–	completely mitigated
